# PubChem BioAssay AID504786 – Drosophila RNAi Screening Center – 2011
# Test: 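Knock-downs reducing HIF reporter induction by the iron chelator DFO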 (primary screen)
# Cells: Drosophila S2 cells with a stable HIF luciferase reporter
# Reagent: long dsRNA against Drosophila genes, about 0.2 µg dsRNA per well of a 384-well plate
# Time to read-out: three days of knock-down, then 20 h of DFO before reading
# Conditions: desferrioxamine (DFO) at 100 µM, an iron chelator that mimics hypoxia, for 20 h
# Read-out: 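HIF reporter luminescence in cells given 100 µM DFO for 20 h, using the mouse ldh-a hypoxia-response element, scored as per-plate z-scores; higher means greater loss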
# Direction: z-score: higher = stronger loss of HIF reporter signal
# The screen tested about 21,000 reagents; shown is a random part of those that have a named target and a result. 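Primary screen; positive scores mean lost reporter signal, so the sign may be inverted from the usual convention.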
Gene,amplicon,"z-score, replicate 1","z-score, replicate 2"
CG17959,DRSC18142,-0.3,-0.2
Naprt (Nicotinate phosphoribosyltransferase),DRSC00630,-0.3,-0.6
CG7453,DRSC20046,0.1,-0.1
Or92a (Odorant receptor 92a),DRSC16771,0.7,-0.4
disco (disconnected),DRSC20323,-0.3,0.3
hpo (hippo),DRSC06065,-0.2,-0.7
Rsbp15 (Radial spoke binding protein 15),DRSC14176,0.2,0
slv (saliva),DRSC07685,-0.3,-0.4
ttm3 (tiny tim 3),DRSC03736,-0.3,0.1
CG6276,DRSC16007,-0.1,-0.1
CG4783,DRSC15644,-0.4,-0.4
CG17187,DRSC15181,-0.1,0.2
Imp (IGF-II mRNA-binding protein),DRSC18861,-0.4,-0.2
Imp (IGF-II mRNA-binding protein),DRSC20255,0,-0.2
"GAPsec (GTPase activating protein, SECIS-dependent read-through)",DRSC10564,-0.1,-0.2
CG31997,DRSC17105,-0.1,-0.4
CG33689,DRSC09424,-0.1,0
CG16868,DRSC06633,-0.2,-0.5
Sol1,DRSC15263,-0.2,-0.2
Sol1,DRSC15271,-0.3,-0.4
Sol1,DRSC15681,-0.3,-0.5
CG32650,DRSC19899,-0.2,-0.6
CG31087,DRSC14253,-0.3,0.7
CG11279,DRSC09837,-0.1,-0.3
CG1307,DRSC12492,-0.4,-0.7
Hou (Houki),DRSC20001,-0.3,-0.5
scro (scarecrow),DRSC17099,-0.1,-0.5
scro (scarecrow),DRSC17102,-0.3,-0.1
Ak2 (Adenylate kinase 2),DRSC04043,0,-0.7
CG13231,DRSC06351,-0.3,-0.3
Unc50 (Unc50 RNA binding protein),DRSC16561,-0.5,0
borr (borealin-related),DRSC02749,0,-0.5
r (rudimentary),DRSC19813,1.2,0
r (rudimentary),DRSC19814,1.1,-0.7

Entries listed so far whose target name begins with H or h:
Gene,amplicon,"z-score, replicate 1","z-score, replicate 2"
hpo (hippo),DRSC06065,-0.2,-0.7
Hou (Houki),DRSC20001,-0.3,-0.5
